# No constants are given. Whether binding was seen depends on the method and setting. Some entries that bind do so weakly or less than the wild type. Tags and fused reporters may be left off the sequences shown.
# B1: Sav1866^3xFLAG, multidrug ABC transporter Sav1866 from Staphylococcus aureus with a 3xFLAG epitope tag (protein, UniProt Q99T13 1-578)
# chain: MIKRYLQFVKPYKYRIFATIIVGIIKFGIPMLIPLLIKYAIDGVINNHALTTDEKVHHLTIAIGIALFIFVIVRPPIEFIRQYLAQWTSNKILYDIRKKLYNHLQALSARFYANNQVGQVISRVINDVEQTKDFILTGLMNIWLDCITIIIALSIMFFLDVKLTLAALFIFPFYILTVYVFFGRLRKLTRERSQALAEVQGFLHERVQGISVVKSFAIEDNEAKNFDKKNTNFLTRALKHTRWNAYSFAAINTVTDIGPIIVIGVGAYLAISGSITVGTLAAFVGYLELLFGPLRRLVASFTTLTQSFASMDRVFQLIDEDYDIKNGVGAQPIEIKQGRIDIDHVSFQYNDNEAPILKDINLSIEKGETVAFVGMSGGGKSTLINLIPRFYDVTSGQILIDGHNIKDFLTGSLRNQIGLVQQDNILFSDTVKENILLGRPTATDEEVVEAAKMANAHDFIMNLPQGYDTEVGERGVKLSGGQKQRLSIARIFLNNPPILILDEATSALDLESESIIQEALDVLSKDRTTLIVAHRLSTITHADKIVVIENGHIVETGTHRELIAKQGAYEHLYSIQNL
# Biological target: Sav1866^3xFLAG, multidrug ABC transporter Sav1866 from Staphylococcus aureus with a 3xFLAG epitope tag (Staphylococcus aureus) (UniProt Q99T13)
# Assay: native gel or EMSA; BN-PAGE (NativePAGE 3 to 12%) of crude membranes of A. balhimycina strains solubilised with 1% LMNG for 1 h at 4°C, 15 μg of solubilised membrane proteins, immunoblot with anti-FLAG antibody
binder,measurement,value
B1,binding,binds
